Values from PubChem BioAssay AID743121 (NCATS, 2013).
Screen: 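Partners whose loss is lethal together with topoisomerase I blockade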 (primary screen). Cell system: MDA-MB-231 cells, a human breast cancer line. Reagents: single siRNA against human genes, 20 nM siRNA (0.8 pmol per well). Duration: 120 h (drug added 48 h after transfection, read 72 h later). Treatment: camptothecin 20 nM (about EC30) for 72 h; vehicle 0.1% DMSO in parallel plates. Detection: 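CellTiter-Glo ATP signal, scaled to control siRNA as percent viability; sensitisation given as log2 of untreated divided by camptothecin-treated viability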. Scale: log2 vehicle/camptothecin viability: higher = stronger sensitisation to camptothecin; viability with camptothecin: higher = more viable cells. Rule for the call: 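Active genes have an RSA gene-level p-value below 0.001, computed from the ratios of their separate siRNAs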.
This is one part, drawn at random, of about 26,000 deposited reagents. 167 of all reagents (0.63%) count as active. 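Calls are per gene from RSA p-values that are not deposited; an individual active-marked siRNA can sensitise only weakly.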 The numbers tell different reagents against one gene apart. Not all columns of the deposit are shown.

ACVR2B #1 gave log2 vehicle/camptothecin viability -0.0436; viability with camptothecin (% of control) = 66; inactive.
With knock-down of ACVR2B #2, the record shows log2 vehicle/camptothecin viability -0.0358; viability with camptothecin (% of control) = 53.7; inactive.
ACVR2B #3 showed log2 vehicle/camptothecin viability 0.467; viability with camptothecin (% of control) = 48; inactive.
After knock-down of ACVR2B #4, the record shows log2 vehicle/camptothecin viability 0.153; viability with camptothecin (% of control) = 12.9; inactive.
Silencing of KRIT1 #1 came out at: log2 vehicle/camptothecin viability -0.251; viability with camptothecin (% of control) = 70.5; inactive.
After knock-down of KRIT1 #2, the screen gave log2 vehicle/camptothecin viability -0.145; viability with camptothecin (% of control) = 104; inactive.
Knock-down of KRIT1 #3 came out at: log2 vehicle/camptothecin viability -0.159; viability with camptothecin (% of control) = 18.2; inactive.

Laid out differently: 2 of the entries above
ACVR2B #3
- log2 vehicle/camptothecin viability: 0.467
- viability with camptothecin (% of control): 48
- Call: inactive

ACVR2B #4
- log2 vehicle/camptothecin viability: 0.153
- viability with camptothecin (% of control): 12.9
- Call: inactive

Additional entries follow.
Silencing of GRK3 #1 gave: log2 vehicle/camptothecin viability -0.213; viability with camptothecin (% of control) = 72.9; inactive.
Knock-down of GRK3 #2 resulted in: log2 vehicle/camptothecin viability 1.42; viability with camptothecin (% of control) = 24.1; inactive.
For GRK3 #3, the entry reads log2 vehicle/camptothecin viability 0.0119; viability with camptothecin (% of control) = 92.2; inactive.
With knock-down of GRK3 #4, the record shows log2 vehicle/camptothecin viability 0.157; viability with camptothecin (% of control) = 84.8; inactive.
HMG20B #1 scored log2 vehicle/camptothecin viability 0.282; viability with camptothecin (% of control) = 57.9; inactive.
For HMG20B #2, the entry reads log2 vehicle/camptothecin viability -0.27; viability with camptothecin (% of control) = 33.9; inactive.
After knock-down of HMG20B #3 the results were log2 vehicle/camptothecin viability 0.231; viability with camptothecin (% of control) = 29.1; inactive.
HMG20B #4 scored log2 vehicle/camptothecin viability 0.916; viability with camptothecin (% of control) = 37.2; inactive.
